These are yes or no findings as the source states them, for the method shown. Binding seen in cells or lysates may run through a third protein. These calls come from enrichment with a bait or labelling near it, and not all partners need be listed.
Biological target: T1, Small heterodimer partner (SHP), endogenous in mouse bone marrow-derived macrophages (mouse (endogenous in BMDMs)) (UniProt Q62227)
T1 sequence: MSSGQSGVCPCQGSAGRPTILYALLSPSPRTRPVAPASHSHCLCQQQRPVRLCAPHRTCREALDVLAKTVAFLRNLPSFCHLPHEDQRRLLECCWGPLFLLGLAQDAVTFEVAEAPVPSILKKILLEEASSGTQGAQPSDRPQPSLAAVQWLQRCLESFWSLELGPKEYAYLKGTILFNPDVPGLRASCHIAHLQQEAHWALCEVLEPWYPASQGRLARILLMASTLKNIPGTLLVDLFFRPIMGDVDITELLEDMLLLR
Assay: affinity purification with mass spectrometry; LPS-primed BMDMs stimulated with ATP 30 min, NP-40 lysate, immunoprecipitation with anti-SHP 18 h at 4 °C, silver-stained bands excised, ion-trap mass spectrometry

Protein sequences, listed by entry. Tags and fused reporters are not part of them.
UniProt Q8R4B8: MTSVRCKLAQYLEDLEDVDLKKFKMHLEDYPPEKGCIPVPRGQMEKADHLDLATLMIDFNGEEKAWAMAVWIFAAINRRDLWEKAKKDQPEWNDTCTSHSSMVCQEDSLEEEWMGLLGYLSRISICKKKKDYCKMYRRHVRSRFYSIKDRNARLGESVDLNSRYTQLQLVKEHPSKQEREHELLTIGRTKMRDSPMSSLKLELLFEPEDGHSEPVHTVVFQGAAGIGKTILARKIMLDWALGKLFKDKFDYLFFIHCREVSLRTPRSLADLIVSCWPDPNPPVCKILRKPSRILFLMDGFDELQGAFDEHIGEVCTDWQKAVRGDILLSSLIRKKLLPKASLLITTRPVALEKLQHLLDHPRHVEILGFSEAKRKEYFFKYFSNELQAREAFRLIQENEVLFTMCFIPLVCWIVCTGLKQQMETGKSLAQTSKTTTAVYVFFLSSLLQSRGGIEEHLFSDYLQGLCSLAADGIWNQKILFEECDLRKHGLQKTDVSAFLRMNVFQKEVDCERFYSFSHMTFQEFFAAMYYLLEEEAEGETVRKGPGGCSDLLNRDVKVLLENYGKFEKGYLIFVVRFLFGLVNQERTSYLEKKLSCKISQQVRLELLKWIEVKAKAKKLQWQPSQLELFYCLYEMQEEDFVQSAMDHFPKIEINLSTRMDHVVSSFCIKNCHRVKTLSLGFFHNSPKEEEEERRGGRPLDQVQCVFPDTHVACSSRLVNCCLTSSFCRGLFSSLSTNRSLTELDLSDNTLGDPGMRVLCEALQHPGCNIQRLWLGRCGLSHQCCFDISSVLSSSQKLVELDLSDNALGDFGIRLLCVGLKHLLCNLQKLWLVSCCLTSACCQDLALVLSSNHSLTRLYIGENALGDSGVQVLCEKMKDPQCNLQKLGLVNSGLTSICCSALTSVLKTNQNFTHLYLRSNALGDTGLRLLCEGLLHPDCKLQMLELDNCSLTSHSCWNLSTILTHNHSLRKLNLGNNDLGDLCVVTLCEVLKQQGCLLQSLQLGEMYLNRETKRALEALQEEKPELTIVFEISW

With “NOD-like receptor family, pyrin domain-containing 3 (NLRP3), endogenous in mouse bone marrow-derived macrophages (from UniProt Q8R4B8 1-1033)” the binding was “binds”.

Reference: article PMC4347017
